Test results taken from PubChem BioAssay AID504444 (National Center for Advancing Translational Sciences (NCATS), 2011).
Out of some 360,000 compounds screened, about 7,500 (2.1%) were called active. Inconclusive means that the source gave no clear call. Such entries were picked first, then a sample of the others. Calls come from the whole dose curve; as a rule, active = well fitted inhibition curve with a large enough effect; inconclusive = small, poorly fitted or top-dose-only effect, or effect the other way; inactive = flat fitted curve, though single readings scatter. Potencies beside an inconclusive call are fits to weak or partial responses and may not hold up.
Potency is the fitted concentration of half-maximal effect.

Assay: Nrf2 qHTS screen for inhibitors; note: nearly all actives have a fitted effect of over 60% in size
Settings: A549 ARE-Fluc reporter, luciferase luminescence, 18-24 h; series mostly up to 46 µM
Method in brief: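 Cells were seeded and rested 2 h, then exposed to compounds for 18-24 h. CellTiter-Fluor was read first as a viability measure. BugLite was added 15 min before the final luminescent read of ARE-luciferase activity in A549 cells.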
In the case of `COc1cccc(CC(=O)Nc2ccc(-c3csc(C)n3)cc2)c1`, the Potency is reported as inconclusive: 13 µM [falling, partial curve, poor fit]. In the case of `Cc1ccc(S(=O)(=O)Nc2cccc(C(=O)NCCCn3ccnc3)c2)cc1F`, the Potency is reported as inconclusive: 1.64 µM [activator, partial curve]. For `CCOc1ccc(S(=O)(=O)Nc2ccccc2C(=O)NCC2CCCO2)cc1` (centres undefined), the Potency was “inactive”. In the case of `Cc1cccc(NC(=O)c2sc3nc4c(c(-c5ccco5)c3c2N)CCC4)c1`, the Potency is reported as inconclusive: 18.4 µM [falling, partial curve]. For `CCCN1C(=O)c2ccccc2NC1c1ccc(Cl)c(Cl)c1` (centres undefined), the Potency was “inactive”. With `Cc1onc(-c2ccccc2Cl)c1C(=O)N1CCN(c2ccccc2)CC1` the Potency was inconclusive: 8.2 µM [falling, partial curve, poor fit]. For `Cc1nnc(C)n1/N=C/c1cc2ccccc2nc1Cl`, the Potency was inconclusive: 14.6 µM [activator, partial curve, poor fit]. For `CC(C)c1ccc(/C=C/C(=O)NC(=S)Nc2ccc(CN3CCOCC3)cc2)cc1`, the Potency was inconclusive: 25.9 µM [falling, partial curve, poor fit]. For `COCC(=O)N/N=C\c1ccc(OC/C=C/c2ccccc2)c(OC)c1`, the Potency was “inactive”. In the case of `COC(=O)C1CCN(C(c2ccc(OC)c(OC)c2)c2sc3nc(C)nn3c2O)CC1` (centres undefined), the Potency is reported as inconclusive: 6.51 µM [falling, single point]. With `CCc1ccc(CCC(=O)Nc2sc(C)c(C)c2C(=O)OC)o1` the Potency was inconclusive: 3.26 µM [activator, full curve, poor fit]. In the case of `CCOc1ccc(CN(C)c2ccc(S(=O)(=O)N3CCN(C)CC3)cc2[N+](=O)[O-])cc1OC`, the Potency is reported as active: 16.4 µM. For `O=C(CCCSc1ccc(Cl)cc1)Nc1cc(S(=O)(=O)N2CCOCC2)ccc1O`, the Potency was “inactive”. For `COc1ccc(-c2nc(C)sc2C)cc1`, the Potency was inconclusive: 3.26 µM [activator, full curve, poor fit]. For `O=C(Nc1ccccc1F)C(=O)c1cn(CC(=O)N2CCCCC2)c2ccccc12`, the Potency was inconclusive: 20.6 µM [activator, single point]. For `Cn1nc(-c2ccccc2)c(CO)c1Oc1ccc(F)cc1`, the Potency was inconclusive: 32.6 µM [falling, single point]. With `Cc1ccc(-c2noc(CCC(=O)NCCc3ccccc3Cl)n2)cc1` the Potency was inconclusive: 29.1 µM [falling, single point]. In the case of `O=c1c(Cc2ccc(F)cc2)c(O)ccn1Cc1ccc(F)cc1`, the Potency is reported as inconclusive: 32.6 µM [falling, partial curve, poor fit]. With `C=CCc1cccc(/C=N/NC(=O)CNc2ccccc2)c1O` the Potency was inconclusive: 18.4 µM [falling, single point]. For `CC(c1ccco1)N(C(=O)CSc1ccc(Br)cc1)c1ccccn1` (centres undefined), the Potency was inconclusive: 14.6 µM [falling, partial curve]. For `CC(C)(C)NC(=O)COc1ccc(CNCc2cccnc2)cc1`, the Potency was inconclusive: 5.17 µM [activator, single point]. In the case of `CC1(C)CC(=O)C2=C(C1)NC1=C(C(=O)c3ccccc31)C2c1ccc(Cl)cc1` (centres undefined), the Potency is reported as inconclusive: 29.1 µM [falling, single point]. With `CN(c1ccc(F)cc1)S(=O)(=O)c1ccc(Cl)c(C(=O)Nc2ccncc2)c1` the Potency was active: 18.4 µM. For `Cc1ccccc1N1CC(=O)N(c2ccccc2C)CC1=O`, the Potency was “inactive”. For `OCCNc1nc(Nc2ccccc2)nc2ccccc12`, the Potency was “inactive”. In the case of `CC(C)(C)C1CCc2c(sc(NC(=O)Cn3nnc(-c4ccccc4Cl)n3)c2C#N)C1` (centres undefined), the Potency is reported as “inactive”. In the case of `Cc1cccc(N2CCN(C(=O)CCn3c(=S)[nH]c4cc5c(cc4c3=O)OCO5)CC2C)c1` (centres undefined), the Potency is reported as inconclusive: 29.1 µM [falling, single point]. With `O=C(CCCCl)NC(=S)Nc1cc(C(F)(F)F)ccc1N1CCOCC1` the Potency was inconclusive: 25.9 µM [falling, single point]. For `CSc1nc2nccc(/C=C\c3ccccc3)n2n1`, the Potency was inconclusive: 0.82 µM [falling, full curve, poor fit]. In the case of `CCOC(=O)c1c(C)[nH]c(C)c1S(=O)(=O)N1CCC(C(=O)Nc2cc(C)ccn2)CC1`, the Potency is reported as inconclusive: 1.03 µM [activator, partial curve]. In the case of `Cc1ccc(CNc2ccc(-c3nc(-c4ccncc4)no3)cc2[N+](=O)[O-])cc1`, the Potency is reported as “inactive”. In the case of `CCOc1ccccc1CNC(=O)CCc1c(C)nn(-c2ccc(N3CCCC3)nn2)c1C`, the Potency is reported as inconclusive: 29.1 µM [falling, single point]. With `CCOC(=O)c1cccc(NC(=O)CCS(=O)(=O)c2ccc3c(c2)CC(=O)N3C)c1` the Potency was inconclusive: 23.1 µM [activator, partial curve, poor fit]. With `O=c1c2ccccc2oc2cc(Br)ccc12` the Potency was inconclusive: 20.6 µM [activator, single point]. With `Cc1ccc(S(=O)(=O)C2(C(=O)Nc3ccc(Cl)c(C(F)(F)F)c3)CC2)cc1` the Potency was “inactive”. For `COc1cc(OC)cc(C(=O)Nc2nc(-c3ccccc3)c(-c3ccccc3)o2)c1`, the Potency was active: 18.4 µM. In the case of `Cn1c(CO)cnc1SCc1ccccc1`, the Potency is reported as inconclusive: 4.61 µM [activator, partial curve]. In the case of `Cc1ccc(S(=O)(=O)CC(=O)N(CCCN2CCOCC2)c2nc3c(F)cccc3s2)cc1`, the Potency is reported as “inactive”. In the case of `COc1cccc(C2=NOC(C(=O)NCc3ccccn3)C2)c1` (centres undefined), the Potency is reported as inconclusive: 1.3 µM [falling, full curve, poor fit]. In the case of `CCCCc1ccc(NC(=O)c2cnccn2)cc1`, the Potency is reported as inconclusive: 1.84 µM [activator, full curve]. With `Cc1ccc(S(=O)(=O)Nc2ccc3c(c2)nc(CCN2CCN(c4ccccn4)CC2)n3C)cc1` the Potency was inconclusive: 32.6 µM [falling, partial curve, poor fit]. In the case of `Cc1nn2cc(-c3ccc(Cl)cc3)cnc2c1Br`, the Potency is reported as inconclusive: 6.51 µM [activator, single point]. In the case of `C=CCCN(C1CCCC1)S(=O)(=O)c1ccccc1Br`, the Potency is reported as inconclusive: 7.31 µM [activator, partial curve, poor fit]. For `COc1ccc(NC(=O)C2CCN(S(=O)(=O)c3ccc4c(c3)CCCC(=O)N4)CC2)cc1OC`, the Potency was inconclusive: 6.51 µM [activator, partial curve, poor fit]. In the case of `CCOc1ccc(S(=O)(=O)n2nc(C)cc2C)cc1`, the Potency is reported as “inactive”. With `CC1(C)C2CCC1(C)C(OCC[N+](C)(C)CC(=O)OC1CCCCC1)C2` (centres undefined) the Potency was inconclusive: 32.6 µM [falling, single point]. In the case of `O=C(CN1C(=O)NC2(CCCC2)C1=O)Nc1ccccc1C(F)(F)F`, the Potency is reported as “inactive”. For `C=C(C)C1CC=C(C)/C(=N/NC(=O)CCC(=O)Nc2ccccc2Cl)C1` (centres undefined), the Potency was inconclusive: 29.1 µM [activator, single point]. In the case of `Cc1cccc(C(C)C)c1NC(=O)Cn1c(=O)oc2cc(S(=O)(=O)N3CCCC3)ccc21`, the Potency is reported as “inactive”. In the case of `CCc1ccc(NC(=O)CSc2nnc(-c3cccs3)n2CC)cc1`, the Potency is reported as inconclusive: 29.1 µM [falling, single point]. With `CCc1ccc2nc(N(CCN(CC)CC)C(=O)c3cccs3)sc2c1` the Potency was “inactive”. With `Clc1ccc(-c2ccc(C=Nc3ccc(N4CCOCC4)cc3)o2)cc1` the Potency was inconclusive: 7.31 µM [activator, partial curve]. For `CCC(=O)c1cn(CCOc2ccccc2OC)c2ccccc12`, the Potency was inconclusive: 29.1 µM [falling, single point]. For `O=[N+]([O-])c1c(NCCO)cc(N2CCCCCC2)c2nonc12`, the Potency was inconclusive: 4.11 µM [falling, partial curve, poor fit]. With `CCNS(=O)(=O)c1ccc(NC(=O)CC(C)c2ccccc2)cc1` (centres undefined) the Potency was inconclusive: 29.1 µM [falling, partial curve, poor fit]. In the case of `COc1cc(C)ccc1OCCCOc1ccccc1Cl`, the Potency is reported as inconclusive: 7.31 µM [activator, partial curve]. With `CCCC(=O)NNc1c2ccccc2nc2ccccc12` the Potency was “inactive”. For `CC1CCCC(NC(=O)CNC(=S)N(Cc2ccccc2)Cc2cccs2)C1C` (centres undefined), the Potency was inconclusive: 20.6 µM [falling, single point]. For `COc1ccccc1N1CCN(C(=O)c2cc(CC(C)C)on2)CC1`, the Potency was “inactive”. In the case of `CCc1ccccc1N(CC)C(=O)c1c(C)oc2ncn(C)c(=O)c12`, the Potency is reported as “inactive”. In the case of `Cc1[nH]c2ccccc2c1-c1csc(NC(=O)CSCCO)n1`, the Potency is reported as “inactive”. With `CCOC(=O)c1cnc(Nc2nc3ccccc3o2)nc1CN1CCN(C)CC1` the Potency was inconclusive: 4.61 µM [activator, full curve, poor fit]. With `O=C(CSc1oc(-c2ccccc2)nc1S(=O)(=O)c1ccccc1)NCC1CCCO1` (centres undefined) the Potency was inconclusive: 9.2 µM [falling, single point]. For `Cc1ccccc1N1CCN(c2ncnc3scc(-c4cccs4)c23)CC1`, the Potency was inconclusive: 20.6 µM [falling, partial curve, poor fit]. With `COc1ccc2ccccc2c1CN1CCN(C(=O)c2ccco2)CC1` the Potency was “inactive”. For `C#CCOCCOCCOCCNc1nc(N2CCN(C(=O)C([C@@H](C)CC)n3cc(C(N)CC(C)C)nn3)CC2)nc(N2CCN(C(=O)[C@H](CCC(=O)O)n3cc(C(N)CC(C)C)nn3)CC2)n1` (some centres undefined), the Potency was inconclusive: 5.8 µM [falling, partial curve, poor fit]. For `CCc1nc(SCc2ccc(OC)cc2)n[nH]1`, the Potency was “inactive”. In the case of `C=CCNc1nc(N)c(C(=C(C#N)C#N)c2ccccc2)s1`, the Potency is reported as inconclusive: 6.51 µM [falling, partial curve, poor fit]. In the case of `Cc1ccc2c(c1)C(=O)CC(c1ccccc1)S2` (centres undefined), the Potency is reported as inconclusive: 2.31 µM [activator, full curve].
